# Laboratory results taken from patent US3985758A, “1,4-Dihydropyridine derivatives” (Yamanouchi Pharmaceutical Co., Ltd., priority 1973, dated 1976).
# Experiments:
# in vivo [1] = conditions: dog, iv
# in vivo [2] = conditions: mouse, iv
# Procedure: LD50 was determined by using mice.
# 2. Acute toxicity in mice
# Male ICR weighing 25 to 32 g were used. The test compounds were injected into tail vein and LD 50 values were determined.
# physchem = conditions: water
compound,measurement,setting,value
"COC(=O)C1=C(C)NC(C)=C(C(=O)OC)C1c1ccccc1[N+](=O)[O-] [Nifedipine, 4-(2'-nitrophenyl)-2,6-dimethyl-1,4-dihydropyridine-3,5-dicarboxylic acid dimethyl ester]",LD50,in vivo [1],1.5 mg/kg
same,LD50,in vivo [2],5.6 mg/kg
same,solubility,physchem,10 µg/mL
same,solubility,"physchem; pH 4, water",10 µg/mL
